For part of these data: Tags and fusion partners may be left off the protein sequences shown. For part of these data: The exact form of at least one protein or probe is not confirmed. For part of these data: Negatives hold for the conditions tested.
Key:
[1] = test system: T1, pSu9-MS2 (pSu9-CP) expressed in yeast (Phage MS2); test: activity in cells; settings: RNA detected by RT-PCR in mitochondria of yeast; not with MS2 lacking pSu9; protein in cells; protein details: Myc tag, pSu9 mitochondrial targeting sequence
T1 sequence: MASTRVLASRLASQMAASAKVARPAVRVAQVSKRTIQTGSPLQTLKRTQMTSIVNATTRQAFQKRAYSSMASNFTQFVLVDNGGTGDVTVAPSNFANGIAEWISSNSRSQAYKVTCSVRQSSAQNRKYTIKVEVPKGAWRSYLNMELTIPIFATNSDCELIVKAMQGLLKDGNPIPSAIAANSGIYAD

Amino acid sequences for entries named in this document (tags omitted). A change or cut given only in a name is not applied to a line headed by its entry.
UniProt P00375: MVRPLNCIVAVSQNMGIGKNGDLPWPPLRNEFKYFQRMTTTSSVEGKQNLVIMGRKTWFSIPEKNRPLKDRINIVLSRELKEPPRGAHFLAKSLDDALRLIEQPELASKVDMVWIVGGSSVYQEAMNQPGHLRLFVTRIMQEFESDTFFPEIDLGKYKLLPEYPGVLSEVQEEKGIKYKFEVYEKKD

[2] = target: T2, pSu9-DHFR (mouse DHFR fused to Neurospora crassa Su9 presequence) (Mus musculus) (UniProt P00375); test: activity assay; settings: import into isolated potato mitochondria, transcript matured; purified recombinant protein; label: 32P-UTP
T2 sequence (limits assumed): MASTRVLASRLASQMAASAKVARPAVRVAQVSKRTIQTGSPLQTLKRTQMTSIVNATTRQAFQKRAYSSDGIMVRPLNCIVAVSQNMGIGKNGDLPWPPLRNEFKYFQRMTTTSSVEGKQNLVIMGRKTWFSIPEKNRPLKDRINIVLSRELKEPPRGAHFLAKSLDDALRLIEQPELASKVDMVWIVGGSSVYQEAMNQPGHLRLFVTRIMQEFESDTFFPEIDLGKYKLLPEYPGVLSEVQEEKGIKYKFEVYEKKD

GFP = GFP (UniProt P42212); test: binding assay; settings: Southwestern blot; no interaction; purified recombinant protein; label: 5'-32P; single-stranded DNA

In the case of “AUAAUGUUAUAUAAGUAAUAAUAUAAUAAAAUAUCCUAAGGUACCUAAUUGCCUAGAAAACAUGAGGAUCACCCAUGUCUGCAGGUCGACUCUAGAAAACAUGAGGAUCACCCAUGUCUGCAGUAUUCCCGGG [anticox-2SL RNA]”, the functional effect [1] is reported as “active”.

With “GCGAAUUGGAGCUCCACCGCGGUGGCGGCGCUCUAGAACUAGUGGAUCCAAUAGCGAGUAUAGACGUGUCUAAGGGCGAGCAUAACCCAAUAGGUCAGAGUGUCAGAUUGUGAAUUCGAAAACACGGGUUCGAAUCCCGUUAUUCGCCGCACCCCAUUGUCGACCAGGCCCUCUCCCCCCUAUUAAAUAAGUAAAGCGAUGGCCCCGGCUUUCAAUACGUUACAAUCUAUUUAUUCCCCUAAAGGAUCCCCCCGGGCUGCAGG [larch mitochondrial tRNAHis precursor (edited)]” the functional effect [2] was “active”.

“GGGGATGTAGCTCATATGGTAGAGCGCTCGCTTTGCATGCGAGAGGCACAGGGTTCGATTCCCTGCATCTCCACCA [tRNAAla-sequence DNA oligonucleotide]”: no binding (GFP).

Reference: patent publication US20120110693
